# Measured values: PubChem BioAssay AID445 (National Center for Advancing Translational Sciences (NCATS), 2006)
# The other results are listed elsewhere or left out. These are further read-outs of the screen, such as a control signal, another cell line or another target. No call is given for them. Most of these compounds were active or inconclusive in the main read-out, so they are no random draw. Words in brackets tell the shape of the fitted curve; partial curves, single points and poor fits give uncertain potencies.
# Assay: IkB Signaling
# Settings: ABC-DLBCL IkBa-CBG/CBR dual luciferase ratio (green luciferase fused to IkBa over red control in OCI-Ly3 lymphoma cells), 4 h
# Method in brief: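 Luminescence ratio of IκBα-fused green versus native red beetle luciferase in OCI-Ly3 cells, 4 h post-doxycycline with compound; red signal alone, scaled from basal (0%) to zero light (-100%), flagged nonspecific or cytotoxic effects.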
# [1] = measured here: control luc red channel unless noted
# [2] = measured here: IkB-luc green channel
# [3] = measured here: control luc red channel
smiles,measurement,setting,value
O=C(CCC1N=C2c3ccccc3N=C(SCc3ccc(F)cc3)N2C1=O)N1CCN(c2ccccc2)CC1 (stereo not drawn),AC50,[1],"39.8 µM [falling, single point]"
COc1ccc(NC(=O)[C@@H]2[C@@H]3C(=O)N(C4CCCCC4)C(=O)[C@@H]3C3c4ccccc4C=CN32)cc1 (stereo partly drawn),AC50,[1],"15.8 µM [falling, partial curve]"
CCOC(=O)c1ccc(N2C(=O)c3n[nH]c(-c4cccs4)c3C2c2cccc(O)c2)cc1 (stereo not drawn),AC50,[1],"12.6 µM [falling, partial curve]"
COc1ccc(N2CCN(C(=O)CCCCn3c(=O)[nH]c4ccsc4c3=O)CC2)cc1,AC50,[1],"10 µM [falling, partial curve]"
CC(C)c1ccc(CNC(=O)c2ccc(N3CCCC3)c(NC(=O)NCc3ccc(F)cc3)c2)cc1,AC50,[1],"7.94 µM [falling, partial curve]"
COC(=O)c1c(SCC(=O)Nc2ccccc2C(F)(F)F)[nH]c2ccc(Cl)cc2c1=O,AC50,[1],"3.98 µM [falling, full curve]"
C=CCn1c2ccccc2c2nnc(SCCCn3c(=O)[nH]c4ccccc43)nc21,AC50,[2],"5.01 µM [falling, partial curve]"
same,AC50,[3],"3.98 µM [falling, full curve]"
COC(=O)c1cccc(NC(=O)NC2CCCN2S(=O)(=O)c2ccc(Cl)cc2)c1 (stereo not drawn),AC50,[1],"15.8 µM [falling, partial curve]"
CC(=O)c1ccc(NC(=O)CSc2nnc3c(n2)[nH]c2ccccc23)cc1,AC50,[1],"15.8 µM [falling, partial curve]"
COc1ccccc1N1CCN(C(=O)CCc2ccc(S(=O)(=O)NC(C)C)cc2)CC1,AC50,[1],"31.6 µM [falling, partial curve]"
CC1=C(C(=O)Nc2ccc(C)cc2C)C(c2cccs2)n2nc(SCc3ccc(Cl)cc3)nc2N1 (stereo not drawn),AC50,[1],"2.51 µM [falling, full curve, poor fit]"
CC(=O)c1ccc(NC(=O)CC2Sc3ccccc3NC2=O)cc1 (stereo not drawn),AC50,[1],"39.8 µM [falling, single point]"
COc1ccc(-c2csc3ncnc(Nc4cccc(F)c4)c23)cc1,AC50,[1],"31.6 µM [falling, single point]"
Cc1cc(Oc2nc3ccccn3c(=O)c2/C=C(\C#N)c2nc3ccccc3s2)ccc1Cl,AC50,[2],"31.6 µM [rising, single point]"
same,AC50,[3],"2 µM [falling, full curve]"
Cc1ccc(NC(=O)C2CCN(C(=O)c3cnn(-c4ccccc4)c3-n3cccc3)CC2)cc1Cl,AC50,[1],"12.6 µM [falling, partial curve]"
COc1cc2cc(CN(C(=O)Nc3ccccc3)C3CCCC3)c(=O)[nH]c2cc1OC,AC50,[1],"10 µM [falling, partial curve]"
CCCCOc1ccccc1NC(=O)c1ccco1,AC50,[1],"25.1 µM [falling, partial curve]"
Cc1ccc(Cl)cc1NC(=O)C(NS(=O)(=O)c1ccc2c(c1)CCC(=O)N2)c1ccccc1 (stereo not drawn),AC50,[1],"15.8 µM [falling, partial curve]"
CCc1ccc(NCc2cc3cc(OC)c(OC)cc3n(CC(=O)Nc3ccc(F)cc3)c2=O)cc1,AC50,[1],"12.6 µM [falling, partial curve]"
CC(C)(C)C(=O)Nc1ccc2nc(SCc3ccccc3)sc2c1,AC50,[1],"25.1 µM [falling, partial curve]"
COc1ccc(C(=O)n2c(-c3ccco3)nc3ccccc32)cc1,AC50,[1],"39.8 µM [falling, single point]"
Cc1ccccc1C(=O)NC(=O)Nc1ccc(-n2nc(C(F)(F)F)cc2C(F)(F)F)cc1,AC50,[1],"10 µM [rising, partial curve]"
CC(C)c1ccc(NC(=O)C(Cc2ccccc2)n2cccc2)cc1 (stereo not drawn),AC50,[1],"39.8 µM [falling, single point]"
CCCc1cc(=O)n2[nH]c(-c3ccc(Br)cc3)cc2n1,AC50,[1],"5.01 µM [falling, partial curve]"
CC(=O)Nc1nonc1-c1nnc(SCC(=O)Nc2c(C)cccc2C)n1-c1ccccc1,AC50,[1],"15.8 µM [falling, single point]"
CCn1cc(C(=O)NCc2ccc(Cl)cc2)c(=O)c2cc(S(=O)(=O)N3CCc4ccccc4C3)ccc21,AC50,[1],"3.98 µM [falling, partial curve]"
CCCCC12CN3CC(C)(CN(C1)C3c1ccc(OCc3ccccc3)cc1)C2=O (stereo not drawn),AC50,[1],"20 µM [falling, partial curve]"
O=C(C1CCN(S(=O)(=O)c2cccs2)CC1)N1CCN(c2ccccc2F)CC1,AC50,[1],"20 µM [falling, single point]"
O=C(CCCCCn1c(=O)[nH]c2ccccc2c1=O)N1CCN(c2cccc(C(F)(F)F)c2)CC1,AC50,[1],"39.8 µM [falling, single point]"
C[C@H](NC(=O)/C(C#N)=C/c1ccc(O)c(O)c1)c1ccccc1,AC50,[1],"39.8 µM [falling, single point]"
FC(F)(F)c1cccc(Nc2nc3nonc3nc2Nc2ccc(Cl)cc2)c1,AC50,[1],"0.126 µM [falling, full curve]"
CCC(CC)C(=O)Nc1ccc(S(=O)(=O)N2CCC(c3nc4ccccc4s3)CC2)cc1,AC50,[1],"20 µM [falling, single point]"
Cc1nc(-c2ccc(S(=O)(=O)N3CCN(c4ccccc4F)CC3)cc2)co1,AC50,[1],"31.6 µM [falling, partial curve]"
CCN(C(=O)Cn1c(C(=O)OC)cc2sccc21)c1cccc(C)c1,AC50,[1],"39.8 µM [falling, partial curve, poor fit]"
CC(C)NC(=O)c1ccc(CSc2nc3ccncc3n2Cc2cccc(F)c2)cc1,AC50,[1],"15.8 µM [falling, single point]"
CCCCN(CCCC)CCCNC(=O)c1cc(-c2ccc(Cl)s2)nc2ccccc12,AC50,[1],"10 µM [falling, partial curve]"
CC(C)c1ccc(C2CC(=O)N3CN(C4CCCCC4)CSC3=C2C#N)cc1 (stereo not drawn),AC50,[1],"15.8 µM [falling, single point]"
Cn1ccc2cc(S(=O)(=O)N3CCCC(C(=O)NCc4ccccc4F)C3)ccc21 (stereo not drawn),AC50,[1],"5.01 µM [falling, partial curve]"
CC1=C(C(=O)Nc2ccccc2)C(c2ccc(Br)cc2)n2nc(CCCO)nc2N1 (stereo not drawn),AC50,[1],"20 µM [falling, single point]"
CCCc1cc(=O)[nH]c(Nc2cc(Cl)cc(Cl)c2)n1,AC50,[1],"3.16 µM [falling, full curve]"
O=C(O)c1ccc(/C=N\N=C2c3ccccc3-c3ccccc32)cc1,AC50,[1],"0.0251 µM [falling, full curve]"
COc1ccccc1N1CCN(C(=O)c2nn(C)c3c2CS(=O)(=O)c2ccccc2-3)CC1,AC50,[1],"6.31 µM [falling, partial curve]"
CCn1cc2nc(SCc3cc(C)ccc3C)n(Cc3ccc(Cl)cc3)c(=O)c2n1,AC50,[1],"5.01 µM [falling, full curve]"
Cc1nn(Cc2ccc(F)cc2)c(C)c1NC(=O)c1noc2c1CCc1ccccc1-2,AC50,[1],"31.6 µM [rising, partial curve] [measured here: IkB-luc green channel]"
CCOC(=O)c1ccc(NC(=O)Cc2noc3ccc(C)cc23)cc1,AC50,[1],"1.58 µM [falling, full curve]"
Cn1cc(S(=O)(=O)N2CCCC2)cc1C(=O)Nc1ccc(F)cc1F,AC50,[1],"15.8 µM [falling, single point]"
CC(C)CCNC(=O)c1cc(-c2cccnc2)nc2ccc(S(=O)(=O)N3CCC(C)CC3)cc12,AC50,[1],"1 µM [rising, full curve]"
CCCn1c(SCC(=O)Nc2cccc(C(=O)OCC)c2)nnc1-c1ccoc1C,AC50,[1],"39.8 µM [falling, single point]"
Cc1cccc(-n2c3nc(=O)[nH]c(=O)c-3cc3ccc(Cl)cc32)c1C,AC50,[1],"10 µM [falling, partial curve]"
CCOC(=O)CC(NC(=O)Cn1nnc(-c2ccc(Cl)cc2)n1)c1ccc(OC)cc1 (stereo not drawn),AC50,[1],"20 µM [falling, single point]"
COc1cc(OC)c(NC(=O)c2ccc(-n3cnc4cccnc43)cc2)cc1Cl,AC50,[1],"3.98 µM [falling, full curve, poor fit]"
CC(=O)Nc1cccc(NC(=O)CSc2nccn2Cc2ccccc2)c1,AC50,[1],"15.8 µM [falling, single point]"
CC(=O)c1cccc(NC(=O)Cn2ccn3nc(-c4ccccc4)cc3c2=O)c1,AC50,[1],"20 µM [falling, partial curve, poor fit]"
N#CCSc1nc2c(c(C3CC=CCC3)c1C#N)CCC2 (stereo not drawn),AC50,[1],"6.31 µM [rising, single point] [measured here: IkB-luc green channel]"
COc1ccc(OCCCn2c(C3CC(=O)N(c4ccc(F)cc4)C3)nc3ccccc32)cc1 (stereo not drawn),AC50,[1],"25.1 µM [falling, partial curve]"
Cc1nn(Cc2ccccc2)c2sc(C(=O)N3CCN(Cc4ccc5c(c4)OCO5)CC3)cc12,AC50,[1],"31.6 µM [falling, partial curve]"
COc1ccc(OC)c(NC(=O)c2cc3cccc(OC)c3oc2=O)c1,AC50,[1],"0.316 µM [falling, full curve]"
Cc1ccc(-c2nc3cccc(C)n3c2Nc2ccc3c(c2)OCO3)o1,AC50,[1],"20 µM [falling, partial curve]"
Cc1ccc2nc(-c3ccc(SCC(=O)Nc4cc(C)on4)nc3)[nH]c2c1,AC50,[1],"5.01 µM [falling, partial curve]"
CCOc1ccccc1C(=O)N1CCc2cc(OC)c(OC)cc2C1COc1ccc(OC)cc1 (stereo not drawn),AC50,[1],"39.8 µM [falling, partial curve]"
Cc1nn(-c2ccccc2)c(OC(=O)c2ccc(Cl)cc2)c1S(=O)(=O)c1ccccc1,AC50,[1],"0.316 µM [falling, full curve, poor fit]"

# In another format: entries from further up.
smiles | measurement | setting | value
COc1ccc(N2CCN(C(=O)CCCCn3c(=O)[nH]c4ccsc4c3=O)CC2)cc1 | AC50 | [1] | 10 µM [falling, partial curve]
CC(C)c1ccc(CNC(=O)c2ccc(N3CCCC3)c(NC(=O)NCc3ccc(F)cc3)c2)cc1 | AC50 | [1] | 7.94 µM [falling, partial curve]
COC(=O)c1c(SCC(=O)Nc2ccccc2C(F)(F)F)[nH]c2ccc(Cl)cc2c1=O | AC50 | [1] | 3.98 µM [falling, full curve]
C=CCn1c2ccccc2c2nnc(SCCCn3c(=O)[nH]c4ccccc43)nc21 | AC50 | [2] | 5.01 µM [falling, partial curve]
